Laboratory results taken from publication doi:10.1101/403360.
Results are given in words; binding and its absence hold for the method and conditions named. In cells and extracts the contact can be indirect. Some results given as binding are weak or reduced against the parent protein; the word gives no strength.

Amino acid sequences for entries named in this document (tags omitted). Residues count along the entry.
UniProt Q01097, residues 27-1482: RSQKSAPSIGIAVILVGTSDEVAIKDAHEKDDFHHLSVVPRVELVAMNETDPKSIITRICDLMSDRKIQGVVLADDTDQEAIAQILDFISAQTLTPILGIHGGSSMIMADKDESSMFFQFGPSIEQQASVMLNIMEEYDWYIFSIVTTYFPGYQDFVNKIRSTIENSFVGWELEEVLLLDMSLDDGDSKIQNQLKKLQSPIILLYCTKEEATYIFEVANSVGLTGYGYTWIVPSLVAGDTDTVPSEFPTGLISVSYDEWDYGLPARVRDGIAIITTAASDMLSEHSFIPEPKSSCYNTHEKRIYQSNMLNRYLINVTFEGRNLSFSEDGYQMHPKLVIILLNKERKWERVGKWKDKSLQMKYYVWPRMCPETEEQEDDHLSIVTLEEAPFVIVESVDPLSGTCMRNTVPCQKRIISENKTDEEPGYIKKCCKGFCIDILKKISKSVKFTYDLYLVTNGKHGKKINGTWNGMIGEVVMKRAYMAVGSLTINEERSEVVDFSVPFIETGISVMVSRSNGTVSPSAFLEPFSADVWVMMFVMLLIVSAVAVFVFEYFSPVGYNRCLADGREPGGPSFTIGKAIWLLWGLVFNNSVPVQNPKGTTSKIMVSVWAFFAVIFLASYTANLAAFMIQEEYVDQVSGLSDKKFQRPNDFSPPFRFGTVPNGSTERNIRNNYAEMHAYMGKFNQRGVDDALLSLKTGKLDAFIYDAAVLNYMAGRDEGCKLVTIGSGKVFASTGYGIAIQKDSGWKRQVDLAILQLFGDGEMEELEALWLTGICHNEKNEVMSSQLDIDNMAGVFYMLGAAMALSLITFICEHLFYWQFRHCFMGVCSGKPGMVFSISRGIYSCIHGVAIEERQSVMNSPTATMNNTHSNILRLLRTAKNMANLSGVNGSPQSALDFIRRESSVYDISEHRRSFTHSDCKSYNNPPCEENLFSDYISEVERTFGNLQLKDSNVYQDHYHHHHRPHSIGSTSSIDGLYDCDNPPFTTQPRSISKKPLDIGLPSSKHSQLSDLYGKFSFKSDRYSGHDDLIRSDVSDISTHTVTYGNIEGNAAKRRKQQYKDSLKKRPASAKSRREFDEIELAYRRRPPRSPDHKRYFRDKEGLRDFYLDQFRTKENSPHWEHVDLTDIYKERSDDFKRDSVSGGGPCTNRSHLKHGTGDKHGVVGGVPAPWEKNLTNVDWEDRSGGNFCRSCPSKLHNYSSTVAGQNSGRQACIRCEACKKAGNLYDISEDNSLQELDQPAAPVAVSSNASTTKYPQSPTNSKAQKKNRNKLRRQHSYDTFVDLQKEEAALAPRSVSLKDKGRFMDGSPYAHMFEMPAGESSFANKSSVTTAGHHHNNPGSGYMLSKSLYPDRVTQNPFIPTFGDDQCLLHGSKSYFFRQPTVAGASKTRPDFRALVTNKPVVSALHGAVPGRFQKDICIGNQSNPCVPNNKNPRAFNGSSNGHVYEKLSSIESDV

Molecular target: FRMPD2 (mouse (endogenous in hippocampus))
Test: co-IP

Row | Substance | binding
1 | GluN2A, NMDA receptor subunit (endogenous) (from UniProt P35436 23-1464) | binds
2 | GluN2B, NMDA receptor subunit (endogenous) (from UniProt Q01097 27-1482) | binds
